Results are given in words; binding and its absence hold for the method and conditions named. Some binding calls cover weakened binding; strength is not graded here. Sequences can lack the tags named with a protein.
B1: PapC usher, P07110 25-836 (protein)
chain: ASAVEFNTDVLDAADKKNIDFTRFSEAGYVLPGQYLLDVIVNGQSISPASLQISFVEPALSGDKAEKKLPQACLTSDMVRLMGLTAESLDKVVYWHDGQCADFHGLPGVDIRPDTGAGVLRINMPQAWLEYSDATWLPPSRWDDGIPGLMLDYNLNGTVSRNYQGGDSHQFSYNGTVGGNLGPWRLRADYQGSQEQSRYNGEKTTNRNFTWSRFYLFRAIPRWRANLTLGENNINSDIFRSWSYTGASLESDDRMLPPRLRGYAPQITGIAETNARVVVSQQGRVLYDSMVPAGPFSIQDLDSSVRGRLDVEVIEQNGRKKTFQVDTASVPYLTRPGQVRYKLVSGRSRGYGHETEGPVFATGEASWGLSNQWSLYGGAVLAGDYNALAAGAGWDLGVPGTLSADITQSVARIEGERTFQGKSWRLSYSKRFDNADADITFAGYRFSERNYMTMEQYLNARYRNDYSSREKEMYTVTLNKNVADWNTSFNLQYSRQTYWDIRKTDYYTVSVNRYFNVFGLQGVAVGLSASRSKYLGRDNDSAYLRISVPLGTGTASYSGSMSNDRYVNMAGYTDTFNDGLDSYSLNAGLNSGGGLTSQRQINAYYSHRSPLANLSANIASLQKGYTSFGVSASGGATITGKGAALHAGGMSGGTRLLVDTDGVGGVPVDGGQVVTNRWGTGVVTDISSYYRNTTSVDLKRLPDDVEATRSVVESALTEGAIGYRKFSVLKGKRLFAILRLADGSQPPFGASVTSEKGRELGMVADEGLAWLSGVTPGETLSVNWDGKIQCQVNVPETAISDQQLLLPCTPQK
B2: PapK (protein, UniProt P62532 22-178)
chain: SDVAFRGNLLDRPCHVSGDSLNKHVVFKTRASRDFWYPPGRSPTESFVIRLENCHATAVGKIVTLTFKGTEEAALPGHLKVTGVNAGRLGIALLDTDGSSLLKPGTSHNKGQGEKVTGNSLELPFGAYVVATPEALRTKSVVPGDYEATATFELTYR
B3: PapE (protein, UniProt P08407 25-173)
chain: VDNLTFRGKLIIPACTVSNTTVDWQDVEIQTLSQNGNHEKEFTVNMRCPYNLGTMKVTITATNTYNNAILVQNTSNTSSDGLLVYLYNSNAGNIGTAITLGTPFTPGKITGNNADKTISLHAKLGYKGNMQNLIAGPFSATATLVASYS
B4: PapF (protein, UniProt P08408 19-167)
chain: ADVQINIRGNVYIPPCTINNGQNIVVDFGNINPEHVDNSRGEVTKTISISCPYKSGSLWIKVTGNTMGGGQNNVLATNITHFGIALYQGKGMSTPLILGNGSGNGYGVTAGLDTARSTFTFTSVPFRNGSGILNGGDFQTTASMSMIYN

Legend:
[1] = biological target: T1, PapD chaperone with His-tag (uropathogenic Escherichia coli), P15319; experiment: cryo-EM structure; ∆EF complex PapCDHisK_(F-NTE)G made in vivo, purified from the outer membrane by the His-tag on PapD, 25 mM Tris-HCl pH 8.0, 120 mM NaCl, 0.1% DDM; Conformer II at 3.8 Å and Conformer III at 7.2 Å from one dataset; settings: remark: other sources report otherwise
T1 chain: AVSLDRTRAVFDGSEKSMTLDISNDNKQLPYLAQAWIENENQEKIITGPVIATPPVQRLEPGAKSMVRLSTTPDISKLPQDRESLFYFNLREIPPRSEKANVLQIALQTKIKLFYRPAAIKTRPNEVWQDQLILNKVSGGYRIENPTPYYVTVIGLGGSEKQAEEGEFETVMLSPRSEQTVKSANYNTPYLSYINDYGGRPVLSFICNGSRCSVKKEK

[2] = biological target: T1, PapD chaperone with His-tag …; experiment: cryo-EM structure; ∆E complex PapCDHisK_(E-NTE)FG made in vivo, purified from the outer membrane by the His-tag on PapD, 25 mM Tris-HCl pH 8.0, 120 mM NaCl, 0.1% DDM; Conformer I, 7.6 Å; settings: remark: other sources report otherwise
[3] = biological target: T1, PapD chaperone with His-tag …; experiment: isolation of assembly intermediates from bacteria; complexes formed in bacteria and isolated; no data shown, details not told; settings: remark: other sources report otherwise
[4] = biological target: T2, PapD chaperone with His-tag (uropathogenic Escherichia coli) (UniProt P15319); experiment: as above
T2 sequence: T1 chain

Binder	binding [1]	binding [2]	binding [3]	binding [4]
B1	binds	binds	binds	
B2				binds
B3				binds
B4				binds

Reference: article PMC8410936
